Reference: PMC12881369
These are yes or no findings as the source states them, for the method shown. Binding calls can cover weak binding; strength is not graded here. Sequences can lack the tags named with a protein. For part of these data: Binding seen in cells or lysates may run through a third protein.

Protein sequences, listed by entry. Tags and fused reporters are not part of them. Lines headed by an entry give the natural chain unless they say otherwise; changes in a name come on top.
UniProt P02647: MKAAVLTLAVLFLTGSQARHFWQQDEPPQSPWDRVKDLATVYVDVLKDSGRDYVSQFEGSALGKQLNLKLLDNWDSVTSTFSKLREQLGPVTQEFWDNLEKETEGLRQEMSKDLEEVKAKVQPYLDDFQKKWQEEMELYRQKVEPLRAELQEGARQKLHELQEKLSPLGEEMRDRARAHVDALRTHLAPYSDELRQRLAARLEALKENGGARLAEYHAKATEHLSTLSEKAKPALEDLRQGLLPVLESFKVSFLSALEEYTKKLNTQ

What was measured:
[1] = target: T1, Scube2 tagged with an hexahistidine tag at the N-terminus (human) (UniProt Q9NQ36); assay: QCM-D; purified Scube2 preincubated with purified ApoA1 or HDL and flowed over a heparin-functionalised supported lipid bilayer (biotin-heparin on streptavidin); 22 °C, 10 mM Tris, 100 mM NaCl, pH 7.4, 20 µl per min; ApoA1 or HDL alone as controls; both purified
T1 sequence: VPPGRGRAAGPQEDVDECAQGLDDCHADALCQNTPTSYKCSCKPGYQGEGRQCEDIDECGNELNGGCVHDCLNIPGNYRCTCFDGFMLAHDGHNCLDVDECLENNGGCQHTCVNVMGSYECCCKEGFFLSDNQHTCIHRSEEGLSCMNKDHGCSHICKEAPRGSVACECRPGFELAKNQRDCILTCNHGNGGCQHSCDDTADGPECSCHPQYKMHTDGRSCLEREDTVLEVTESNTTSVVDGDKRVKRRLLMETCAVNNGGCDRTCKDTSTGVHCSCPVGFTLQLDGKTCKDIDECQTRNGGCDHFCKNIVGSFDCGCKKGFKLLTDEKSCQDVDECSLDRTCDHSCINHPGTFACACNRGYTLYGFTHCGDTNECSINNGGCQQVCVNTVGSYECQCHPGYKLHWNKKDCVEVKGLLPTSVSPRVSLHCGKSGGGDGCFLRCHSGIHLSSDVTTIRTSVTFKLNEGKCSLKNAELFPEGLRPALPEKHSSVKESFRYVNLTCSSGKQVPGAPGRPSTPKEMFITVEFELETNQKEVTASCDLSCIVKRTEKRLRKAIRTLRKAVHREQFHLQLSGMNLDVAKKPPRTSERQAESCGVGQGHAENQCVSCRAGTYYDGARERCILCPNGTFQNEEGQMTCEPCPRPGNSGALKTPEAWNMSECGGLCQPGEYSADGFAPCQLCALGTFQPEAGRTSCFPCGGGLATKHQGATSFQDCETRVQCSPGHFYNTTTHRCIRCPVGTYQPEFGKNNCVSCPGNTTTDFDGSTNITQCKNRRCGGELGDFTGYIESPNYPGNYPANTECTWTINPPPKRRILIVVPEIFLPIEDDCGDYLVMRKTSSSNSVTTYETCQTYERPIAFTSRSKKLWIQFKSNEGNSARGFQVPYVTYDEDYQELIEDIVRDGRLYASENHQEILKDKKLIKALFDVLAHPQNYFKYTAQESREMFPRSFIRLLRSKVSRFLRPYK

[2] = target: T2, FLAG-tagged Scube2 (signal sequence, cubulin (CUB) domain, epidermal growth factor (EGF)-like protein 2) (human) (UniProt Q9NQ36); assay: co-IP; FLAG-tagged Scube2 variants from transfected HEK cells bound to anti-FLAG M2-agarose, with purified ApoA1; overnight at 4 °C, three washes with TBS; blot with α-FLAG and α-ApoA1 antibodies; only the binder purified
T2 sequence: T1 sequence

| binding [1] | binding [2] | Substance |
| --- | --- | --- |
| binds |  | purified human HDL (high-density lipoprotein) (complex) |
| binds | binds | purified ApoA1 (apolipoprotein A1) (from UniProt P02647) |
